The list shows a part of the results. Further columns of the screen follow, without active or inactive calls. Compounds called inactive in the main read-out are mostly missing here. The note in brackets gives the kind of curve behind each potency; many fits are weak.
Experiment: qHTS Assay for Lipid Storage Modulators in Drosophila S3 Cells;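 as to cell number change: cells counted by Cell Tracker Red CMTPX staining in the red channel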
Conditions: BODIPY lipid droplet fluorescence, 18-24 h; for cell number change: measured here: cell count max response, cells fed with added oleic acid
Summary of the method: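 Drosophila S3 cells got compounds at several concentrations plus oleic acid (400 uM solution). Laser-scanning cytometry with 488 nm excitation read lipid droplets at 500-530 nm and cells at 575-640 nm. Percent activity was relative to 20 uM Triacsin C.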

[1] = measured here: lipid fluorescence (Fed channel) AC50, cells fed with added oleic acid
[2] = measured here: cell number channel AC50, cells fed with added oleic acid

Compound	cell number change	AC50 [1]	AC50 [2]
CCCCNC(=O)CCN1N=C(c2ccccc2)CCC1=O	-4.57%	0.651 µM [rising, single point]	
COc1ccc(NC(=O)CSc2nc(N)c3cc4c(nc3n2)CCCC4)cc1	14.2%		0.13 µM [falling, full curve, poor fit]
CCCC(=O)NC1C2CC3CC(C2)CC1C3 (stereo not given)	-2.84%	0.0517 µM [falling, full curve, poor fit]	
Cc1cc(NC(=O)CSc2nnc(-c3ccc(Br)o3)n2Cc2ccccc2)no1	-18.6%	0.058 µM [rising, full curve, poor fit]	
CCOc1ccc(NC(=O)CN(C)C(=O)c2ccncc2)cc1OCC	-5.41%	6.51 µM [falling, single point]	
Cc1cccc(-c2nc3ccccc3c3nncn23)c1	4.58%		0.0731 µM [rising, full curve, poor fit]
COC(=O)CC1=NN(c2ccccc2)C(=O)C1	-40.9%	3.66 µM [falling, full curve]	5.17 µM [falling, partial curve]
Cc1ccccc1NC(=O)COC(=O)CC1CCCC1	24.8%		4.61 µM [falling, single point]
CCC(C)CCN1C(N(C)C)=NC[C@@H]1C (stereo not given in full)	14.6%	6.51 µM [rising, partial curve, poor fit]	
CCc1ccc(C(c2c(C)nn(-c3ccccc3)c2N)c2c(C)nn(-c3ccccc3)c2N)cc1	26.1%		
CCOc1ccc(NC(=S)Nc2cc(C)[nH]n2)cc1	30.5%	4.11 µM [falling, single point]	0.291 µM [rising, full curve]
O=C(c1cccc2ccccc12)C1CCCN(C(=O)c2ccc(N3CCOCC3)cc2)C1 (stereo not given)	13.4%	0.651 µM [rising, single point]	
COc1ccccc1CN1C(=O)C2CC=CCC2C1=O (stereo not given)	-19.8%		
Cc1ccc(/C=C(\C#N)c2nn(-c3ccccc3)c(N)c2C#N)cc1	0.53%	0.00517 µM [rising, full curve, poor fit]	
COc1ccc(C(=O)NNC(=O)C(=O)Nc2cccc3ccccc23)cc1	76.1%		25.9 µM [rising, partial curve]
CCc1nnc(NC(=O)CSc2nnc(-c3ccoc3C)n2CC(C)C)s1	45%	29.1 µM [rising, single point]	29.1 µM [rising, single point]
O=C(NC1CCCCC1)c1cc(-c2ccccn2)nc2ccccc12	2.81%		
CN1N=C(C(=O)NC2CCCc3c2cnn3-c2ccc(F)cc2F)CCC1=O (stereo not given)	-55.4%		11.6 µM [falling, partial curve, poor fit]
CNC(=O)N1CCC(C(=O)c2c(C)c(C)c(C)c(C)c2C)CC1	-0.709%		
Cc1cccc(CSCC(=O)NCc2ccc(S(N)(=O)=O)cc2)c1		18.4 µM [rising, single point]	
Cc1cccc(C)c1N(CC(=O)N1CCN(C)CC1)S(C)(=O)=O	-29.6%	4.11 µM [falling, full curve]	
O=C(c1ccc2c(c1)OCO2)N1CCN(c2ncccn2)CC1	11.8%	5.8 µM [rising, single point]	

Compound	cell number change	AC50 [1]	AC50 [2]
O=C(Nc1ccccc1F)c1cc(S(=O)(=O)N2CCCCC2)cs1	5.69%	0.184 µM [falling, full curve, poor fit]	
Cn1ncc2c(Nc3cc(Cl)cc(Cl)c3)ncnc21	0.298%		
CCCOc1ccc(OCCOCCN2CCc3ccccc3C2)cc1	-18.5%		
C/C(=N\NC(=O)c1cccnc1)c1ccc(-c2ccccc2)cc1	-37.3%	29.1 µM [falling, single point]	32.6 µM [falling, single point]
COc1ccc(NC(=O)CSc2nnc(-c3ccccc3)n2Cc2ccco2)c(OC)c1	-17.7%	0.411 µM [rising, full curve, poor fit]	
Fc1ccc(NC(=S)N2CCOCC2)cc1Cl	-0.228%		0.112 µM [falling, full curve, poor fit]
CN(C)S(=O)(=O)c1ccc(N2CCCC2)c(C(=O)NC2CCCCC2)c1	-25.9%		0.58 µM [falling, full curve]
CNC(=S)N/N=C(\C)c1ccc(Cl)c(Cl)c1			1.3 µM [rising, partial curve]
C=CCn1c(SCC(=O)Nc2cccc(S(N)(=O)=O)c2)nnc1C1CCCCC1	8.57%	0.517 µM [rising, single point]	
Cc1ccccc1-n1nc2c(c1NC(=O)C1CCCC1)CS(=O)(=O)C2		6.51 µM [falling, single point]	
CC(=O)n1cc(N(C(=O)CCl)c2ccccc2)c2ccccc21	-62.2%		20.6 µM [falling, partial curve, poor fit]
Cc1cccc2[nH]c3c(N4CCN(C(=O)c5ccco5)CC4)ncnc3c12	-25%	0.259 µM [falling, full curve]	
COc1ccccc1N1CCN(C(=O)c2ccc(Cl)c(S(=O)(=O)NCc3ccco3)c2)CC1	21.8%	3.66 µM [rising, partial curve]	
O=C(c1cccn2c(=O)c3ccccc3nc12)N1CCN(c2ccccn2)CC1		6.51 µM [falling, single point]	
Cc1ccc(CNC(=O)CC(C)S(=O)(=O)c2ccc3c(c2)NC(=O)CS3)o1 (stereo not given)	23.7%	29.1 µM [rising, single point]	
COc1ccc(N(CC(=O)NCc2ccco2)C(=O)CCC(=O)Nc2nccs2)cc1	10.3%		
Cc1ccc(NC(=O)Cn2c(/C=C/c3ccccc3)nc3ccccc32)cc1C		0.58 µM [rising, single point]	
Cc1ccc(SCCC(=O)NCCSCc2ccccc2C)cc1	3.66%	29.1 µM [rising, single point]	
O=C(Nc1ccccc1)N1N=CCC1c1ccccc1 (stereo not given)		1.12 µM [falling, full curve]	1.26 µM [falling, partial curve]
O=C(Nc1ccccc1)c1ccc(N2CCN(c3ccccn3)CC2)c(S(=O)(=O)N2CCOCC2)c1		4.61 µM [rising, partial curve]	2.91 µM [rising, partial curve]
Cc1ccc(-c2nn3c(C)nnc3s2)cc1NC(=O)c1ccc(-c2cccc(Cl)c2)o1	27.6%	1.46 µM [rising, full curve, poor fit]	
COc1cccc(/C(O)=C/c2nc3ccc(C(=O)NCCc4ccc(Cl)cc4)cc3[nH]c2=O)c1	26.1%	29.1 µM [rising, single point]	

Looked up by structure from the list above:
Compound	cell number change	AC50 [1]	AC50 [2]
COc1ccc(N(CC(=O)NCc2ccco2)C(=O)CCC(=O)Nc2nccs2)cc1	10.3%		
O=C(Nc1ccccc1F)c1cc(S(=O)(=O)N2CCCCC2)cs1	5.69%	0.184 µM [falling, full curve, poor fit]	
CC(=O)n1cc(N(C(=O)CCl)c2ccccc2)c2ccccc21	-62.2%		20.6 µM [falling, partial curve, poor fit]
C=CCn1c(SCC(=O)Nc2cccc(S(N)(=O)=O)c2)nnc1C1CCCCC1	8.57%	0.517 µM [rising, single point]	
Cc1ccc(CNC(=O)CC(C)S(=O)(=O)c2ccc3c(c2)NC(=O)CS3)o1 (stereo not given)	23.7%	29.1 µM [rising, single point]	

Remaining list, next part:

Compound	cell number change	AC50 [1]	AC50 [2]
O=c1cc(/N=C/c2coc3c(ccc4ccccc43)c2=O)[nH]c(=S)[nH]1	-16.7%		0.00461 µM [falling, full curve, poor fit]
COc1cc(NC(=S)N2CCCC(CO)C2)c(OC)cc1Cl (stereo not given)	-13.2%	0.731 µM [falling, full curve]	
CCC(C)c1ccccc1NC(=O)COC(=O)c1ccc(C)c(NC(=O)c2ccco2)c1 (stereo not given)	52.5%	0.0231 µM [rising, full curve, poor fit]	0.0206 µM [rising, full curve, poor fit]
O=C(/C=C\c1cccs1)c1c(O)ccc2ccc(=O)oc12	-24.8%	29.1 µM [falling, single point]	
CC(=O)NC1(C(F)(F)F)N=C(c2ccccc2)NC1=O (stereo not given)	-14.7%	3.26 µM [falling, single point]	
CC(C)(O)P(C)(=O)c1ccccc1 (stereo not given)	-36.2%		32.6 µM [falling, single point]
CN1C(=O)CSc2ccc(C(=O)O)cc21		0.231 µM [falling, full curve]	
COCCNC(=O)CN(C(=O)c1ccc(N2CCCC2)nc1)c1ccc(Cl)cc1	2.65%		
O=C(CCC1CCN(C(=O)c2ccccc2Cl)CC1)NCc1ccc(F)cc1	-1.98%	29.1 µM [falling, single point]	
Clc1ccc(-c2nn3c(-c4cccc(Cl)c4)nnc3s2)cc1	4.68%		
CCOc1ccc(CNC(=O)CCCc2cn(C)c3ccccc23)cc1OC		8.2 µM [falling, partial curve, poor fit]	
COC(=O)[C@H](Cc1ccccc1)NC(=O)c1cc(COc2c(F)cccc2F)on1	23.3%		
CCOc1ccc(N2CC(C(=O)NC3=NCCS3)CC2=O)cc1 (stereo not given)	-16.2%	4.11 µM [falling, full curve]	
CC(C)(C)NC(=O)C(c1ccncc1)N(Cc1cccs1)C(=O)Cn1nnc(-c2cccs2)n1 (stereo not given)	-2.66%	2.91 µM [rising, single point]	
N#Cc1c(C(F)(F)F)cc(C2CC2)[nH]c1=O	-26.7%	1.84 µM [falling, partial curve, poor fit]	3.26 µM [falling, full curve, poor fit]
CCC(=O)NNc1nc2c(C)cc(C)cc2s1	36.4%	20.6 µM [rising, single point]	
O=C(CNc1cccc([N+](=O)[O-])c1)NCCCc1ccccc1	5.13%		
[O-]C1=N/[N+](=C/c2ccc(Cl)c(Cl)c2)CC1	-3.41%	0.58 µM [falling, single point]	
N#C/C(=C\c1cc([N+](=O)[O-])ccc1Cl)C(N)=O	-17.5%		
Nc1ccc(N2CCN(CCCCN3C(=O)C4CCCN4C3=O)CC2)cc1 (stereo not given)	2.19%		0.517 µM [falling, single point]
